Test results reported in patent US9988361B2, “Anti-enterovirus 71 thiadiazolidine derivative” (JIANGSU KANION PHARMACEUTICAL CO. LTD, priority 2014, dated 2018).

System: EV71 virus strain Shenzhen/120F1/09
Test: EV71 in-vitro cytopathic effect (CPE) test
Type: cell-based, RD cells of human rhabdomyoma
Conditions: Enterovirus A, EV71, RD, 72 h, read-out: EC50 by EC71 CPE test, EV71
Experimental: Test of EV71 In-Vitro Cytopathic Effect (CPE) To test the in-vitro antiviral activity and cytotoxicity of a compound to HFMD virus EV71 by means of cytopathic effect (CPE) test. […] Cell line: RD cells of human rhabdomyoma • 3. Cell culture media: DMEM medium added with 10% serum, Penicillin/Streptomycin and L-[…]×) • 4. […] Cell inoculation: digest off the RD cells from the attached state, then dilute them with culture medium to a density of 80000/ml and inoculate 100 μl into the micro wells the 96-well plate. • 2. Dilution of compound: • Step 1: prepare the dry powder of a compound to test into a 10 mM solution in DMSO. Then dilute the compound by three times to eight concentration points. Dilute the reference compounds with the same method. • Step 2: further dilute the diluted solution of the compound in DMSO with cell culture medium. Add 10 μl DMSO solution for each well into 240 μl culture medium. • 3. Add the diluted compound solution by 50 μl each well into the 96-well plate inoculated with cells (double holes, final concentration of DMSO is 1%). • 4. Dilution of virus: dilute EV71 virus solution by 10000 times to a concentration of 100 TCID50/50 μl/. Add the diluted virus solution by 50 μl each well into the 96-well plate. […] Use ELIASA to read the absorbancy at the wavelength of 450 nm and 630 nm. • 7.

- EC50: < 50 nM
SMILES: CO/N=C1\CCc2cc(OCCCCCN3CCN(c4ccnc(N)c4)S3(=O)=O)ccc21 [Embodiment 57, (E)-2-(2-amino-pyridin-4-yl)-5-(5-((1-(ethoxy-imino)-2,3-dihydro-1H-inden-5-yl)-oxy)-pentyl)-1,2,5-thiadiazolidine-1,1-dioxide]
